Assay results published in PMC12237041.
These are yes or no findings as the source states them, for the method shown.

What was measured:
Test in all cases: SEC; calibrated Superdex 200 10/300 GL, 50 mM Tris–HCl (pH 8.0), 150 mM sodium chloride; β-ME during lysis and IMAC or a reducing agent during SEC; each IgAse construct alone; both purified
[1] = target: IgAse1 (Thomasclavelia ramosa) (UniProt Q9AES2)
[2] = target: IgAse1–3 + E540A (Thomasclavelia ramosa) (UniProt Q9AES2)
[3] = target: IgAse1–4 + E540A (Thomasclavelia ramosa) (UniProt Q9AES2)
[4] = target: IgAse2–4 + E540A (Thomasclavelia ramosa) (UniProt Q9AES2)
[5] = target: IgAse1–7 + E540A (Thomasclavelia ramosa) (UniProt Q9AES2)

## IgAse1 (from UniProt Q9AES2 31-319) (domain or fragment)
[1]
  binding: no binding

## IgAse1–3 + E540A (from UniProt Q9AES2 31-807) (domain or fragment)
[2]
  binding: no binding

## IgAse1–4 + E540A (from UniProt Q9AES2 31-876) (domain or fragment)
[3]
  binding: no binding

## IgAse2–4 + E540A (from UniProt Q9AES2 328-876) (domain or fragment)
[4]
  binding: no binding

B1: IgAse1–7 + E540A (domain or fragment, UniProt Q9AES2 31-1166)
chain: MASKPDIKVGDYVKMGVYNNASILWRCVSIDNNGPLMLADKIVDTLAYDAKTNDNSNSKSHSRSYKRDDYGSNYWKDSNMRSWLNSTAAEGKVDWLCGNPPKDGYVSGVGAYNEKAGFLNAFSKSEIAAMKTVTQRSLVSHPEYNKGIVDGDANSDLLYYTDISEAVANYDSSYFETTTEKVFLLDVKQANAVWKNLKGYYVAYNNDGMAWPYWLRTPVTDCNHDMRYISSSGQVGRYAPWYSDLGVRPAFYLDSEYFVTTSGSGSQSSPYIGSAPNKQEDDYTISEPAEDANPDWNVSTEQSIQLTLGPWYSNDGKYSNPTIPVYTIQKTRSDTENMVVVVCGEGYTKSQQGKFINDVKRLWQDAMKYEPYRSYADRFNVYALCTASESTFDNGGSTFFDVIVDKYNSPVISNNLHGSQWKNHIFERCIGPEFIEKIHDAHIKKKCDPNTIPSGSEYEPYYYVHDYIAQFAMVVNTKSDFGGAYNNREYGFHYFISPSDSYRASKTFAHAFGHGLLGLGDEYSNGYLLDDKELKSLNLSSVEDPEKIKWRQLLGFRNTYTCRNAYGSKMLVSSYECIMRDTNYQFCEVCRLQGFKRMSQLVKDVDLYVATPEVKEYTGAYSKPSDFTDLETSSYYNYTYNRNDRLLSGNSKSRFNTNMNGKKIELRTVIQNISDKNARQLKFKMWIKHSDGSVATDSSGNPLQTVQTFDIPVWNDKANFWPLGALDHIKSDFNSGLKSCSLIYQIPSDAQLKSGDTVAFQVLDENGNVLADDNTETQRYTTVSIQYKFEDGSEIPNTAGGTFTVPYGTKLDLTPAKTLYDYEFIKVDGLNKPIVSDGTVVTYYYKNKNEEHTHNLTLVAAKAATCTTAGNSAYYTCDGCDKWFADATGSVEITDKTSVKIPAPGHTAGTEWKSDDTNHWHECTVAGCGVIIESTKSAHTAGEWIVDTPATATTAGTKHKECTVCHRVLETQPIPSTGTELKIIAGDNQIYNKASGSDVTITCNGDFAKFTGIKVDGSVVDSSNYTAVSGSTVLTLKASYLGTLTDGSHTITFVYTDGEANANLTVRTAGSGHIHDYGTEWKSNADNHWHECNCGDKKDEAAHSFKWVVDKEATATKKGSKHEECKICGYKRSAVEI
[5]
  binding: no binding
